Measured values from paper PMC12370185.
The list shows a part of the results. For some of these results: At the low end of the ranking, values are background and their order means little.

Key:
Conditions in all cases: 10 mM Tris-Cl pH 7.5, 50 mM NaCl, 1 mM DTT, 0.25 mg/ml BSA, 2 mM MgCl2, 0.025% Nonidet P-40, 5% glycerol; 28 nM nucleosome library; 10 min on ice then 30 min …; high values mean tight binding; double strand, one strand shown
KLF4 + histone octamer = assay: EMSA with sequencing
SOX2 + histone octamer = assay: EMSA with sequencing
[1] = system: c-MYC + MAX + histone octamer; assay: EMSA with sequencing
OCT4 + histone octamer = assay: Pioneer-seq (competitive nucleosome EMSA with sequencing)

GATGGACCCTATACGCGGCGCAAAGACCTGCACCCTCCCACCTCCAACCAGAATGCCACCCACATGTGCTTCCACAGACACATTCTGGAGCTGCCACCCTCCACCCGGGTCCTTCTGTCTCTTTCTCAAACTAAATTAGCCAAAGTCGGCCAATCCTGGGTAGACTTCCACTACTGGCAAATCAGTCTTTTGATTGAGAAAGGTGCCCTTTGCCAGTCGGATAGTGTTCC
binding signal (log2 relative supershift) (KLF4 + histone octamer): 1.48
binding signal (log2 relative supershift) (SOX2 + histone octamer): 0.735
binding signal (log2 relative supershift) [1]: 0.0647
binding signal (log2 relative supershift) (OCT4 + histone octamer): -0.33

GATGGACCCTATACGCGGCGAGCTTTCACCGCGGAGAGAACAACTTGAACAAAGAGGGAACTGTGGGCGTGGGGAAAGGGAGGTTGGGCGGGACAGGACCGCGCCGAAGTGCACGGTGCCTGCGGGATCAGGCCTCCCAGAGCCTGGGTGTCAGCTGAGGACTCCCATGATCTCTGCTGGCAGCCAGGAGCAGGCAGTTTGCCTGTTAGGTGCCAGTCGGATAGTGTTCC
binding signal (log2 relative supershift) (KLF4 + histone octamer): 1.55
binding signal (log2 relative supershift) (SOX2 + histone octamer): 1.43
binding signal (log2 relative supershift) [1]: 0.28
binding signal (log2 relative supershift) (OCT4 + histone octamer): -0.233

GATGGACCCTATACGCGGCAAAATGCTTATGTGTGAGGCTGGGCACAATGGCTCACACCTGTAATCTCAATGTTTCTGGAGGCCAAGGCAGAGGCCTCTTGAGGCCAGGAGTTCAAGACAAGCCTGGGCAAGACCCTGTCTCTACAAAATAAAAATAAAAATTAGCCGGGTTGGTGGTGTGCCTTGTAGTCCCAACTACTTAGGAGGCTGTGCCAGTCGGATAGTGTTCC
binding signal (log2 relative supershift) (KLF4 + histone octamer): 1.84
binding signal (log2 relative supershift) (SOX2 + histone octamer): 0.564
binding signal (log2 relative supershift) [1]: 0.45
binding signal (log2 relative supershift) (OCT4 + histone octamer): -0.358

GATGGACCCTATACGCGGCACAGAATCTCTGCCAGAGTTTACAGCCTACTGCCCTGTGGAATCTGAACAGAAGATTGCAACAGCAACTCTTATCTGCATCTCCAACCTGAAGGCCTGTCCCATGGATTTCAGACTTGTCAGCCCCCACAATCATGTGAGCCAACTCCTTAAAATGTGTGTTTATATGTGCATCCTATTGGTGTGTTTCCTTGCCAGTCGGATAGTGTTCC
binding signal (log2 relative supershift) (KLF4 + histone octamer): 1.9
binding signal (log2 relative supershift) (SOX2 + histone octamer): 0.115
binding signal (log2 relative supershift) [1]: 0.464
binding signal (log2 relative supershift) (OCT4 + histone octamer): -0.408

GATGGACCCTATACGCGGCCCCTACAAGCACTGGTCTTGATTATTATCATCATAACTCGTGAGTGGCATGTCAGGACTTGAGTCCAGGCCATCTCACTCTAACTCCAAGTGTTTCCACTATGCCACACCCCCAGCGTGGTAGCACAGATGGCTCTGGTATAAGGAACTGTTTGAGATCAGCAGAGTGAGTTTGTCTGGATCTCACCAGCCTGCCAGTCGGATAGTGTTCC
binding signal (log2 relative supershift) (KLF4 + histone octamer): 0.522
binding signal (log2 relative supershift) (SOX2 + histone octamer): 0.469
binding signal (log2 relative supershift) [1]: 0.438
binding signal (log2 relative supershift) (OCT4 + histone octamer): -0.0202

GATGGACCCTATACGCGGCATTCAACAGCAGAGAAGAATCCCAAAGCTTGTTGGGTCAGTTTTGGGGGACTGCATTTTCATGAACCAGAGCTGCATCCAGCAGGTTGGGGCCTGTATGCACCCTAGCCAGGATGGAGTGGGAAGGAAGTGCGCAATTCTGACTCCACAAACACCTTTGGTAAGTAGGAGGCTATTTCTACTCATAGATACTGCCAGTCGGATAGTGTTCC
binding signal (log2 relative supershift) (KLF4 + histone octamer): 1.16
binding signal (log2 relative supershift) (SOX2 + histone octamer): 0.717
binding signal (log2 relative supershift) [1]: 0.0594
binding signal (log2 relative supershift) (OCT4 + histone octamer): -0.188

GATGGACCCTATACGCGGCTGAGCCCGGACCTCACAAGAGACCATCTGCACTTCTGCTCTCTCTTGGGGCCCTGTCTCCGAAATGAGGACAAGCCTGGGCTGGCCTCCTGGAAAATGAGAGACCACGTGGAGCAGAACAGTCATTCCAGCTGAGTCAGCCCCCAACCAAGCCACCAGCTGATTTTAGAACTGCTCAACTGACAGTAGACTTGCCAGTCGGATAGTGTTCC
binding signal (log2 relative supershift) (KLF4 + histone octamer): 0.792
binding signal (log2 relative supershift) (SOX2 + histone octamer): 0.218
binding signal (log2 relative supershift) [1]: 0.243
binding signal (log2 relative supershift) (OCT4 + histone octamer): -0.331

GATGGACCCTATACGCGGCGGTTGCTCTCAGCAGTGAGCCATTCATTCCTCAGAGATTTGGGAGCCCTCACCACGTGCAGACGCTGTGCTGCAGGCTGGGAACCACAGGAGAAATGGCTGAATGTTCTGTGGGTGTGGCTGTAGGCAGAGGGCTGATCAGTGAGGTGGGGTGGTGACAGTCTTCTATAGGATGTCGTATGCATCATTTATTGCCAGTCGGATAGTGTTCC
binding signal (log2 relative supershift) (KLF4 + histone octamer): 1.74
binding signal (log2 relative supershift) (SOX2 + histone octamer): 0.522
binding signal (log2 relative supershift) [1]: 0.262
binding signal (log2 relative supershift) (OCT4 + histone octamer): -0.0355

GATGGACCCTATACGCGGCACTCACTACACACCCATGTACATACCCCCCATGCACACATGCATACACACACACAGGTACATCCACAATACACCCACATACGCATATGTATGCACATCCACACACACTACACACCCACACACGTGCCCAACCCCCATGTACATGCATGCACCTACACACCCATTCACACACCCTCATACATACACACATTCTGCCAGTCGGATAGTGTTCC
binding signal (log2 relative supershift) (KLF4 + histone octamer): 2.48
binding signal (log2 relative supershift) (SOX2 + histone octamer): 0.207
binding signal (log2 relative supershift) [1]: 0.775
binding signal (log2 relative supershift) (OCT4 + histone octamer): -0.247

GATGGACCCTATACGCGGCTGCTGTAGGGCCAGAGAAGGATACACACAGCGAGCCTGGCGAATCTCAACAGTACTGGGTGTGGTCAGAGGGCAGCGTGGGTGTGGCCGCATGGCTCCACCCCAGACCCACATGGAGCAGTGGCTTTGGAGCCAGACGCAGGAGCTGGGAATGGCAGCCAGCACATCACAACTTCTGAGCTCAACCATTTGTGCCAGTCGGATAGTGTTCC
binding signal (log2 relative supershift) (KLF4 + histone octamer): 1.13
binding signal (log2 relative supershift) (SOX2 + histone octamer): 0.565
binding signal (log2 relative supershift) [1]: 0.414
binding signal (log2 relative supershift) (OCT4 + histone octamer): -0.218
